{
  "source": "paper PMC6994103",
  "about": "(PLoS Neglected Tropical Diseases, 2020)",
  "test_system": "VERO cells",
  "assay": "Toxicity assay in VERO cells (gentian violet staining)",
  "type": "cell-based, African green monkey",
  "conditions": "IC50 in VERO cells / IC50 in trypomastigotes (Y strain)",
  "experimental": "VERO cells (African green monkey Kidney, ATCC CCL-81) were cultured in MEM medium supplemented with 10% heat inactivated FCS, 0.15% (w/v) NaHCO3, 100 U/mL penicillin and 100 U/mL streptomycin at 37°C in 5% CO2.\nThe toxicity of the compounds was determined in VERO cells by the gentian violet staining assay. Briefly, the cells (1 x10^4 cells/well) were incubated in 96-well plates with the indicated compound or dimethyl sulfoxide (DMSO) as negative control and maintained at 37° C for 24 h. Then the cells were fixed for 15 min, and stained with 0.5% gentian violet. The absorbance was measured at 570 nm. The selectivity index (SI) was calculated for each CV analogue as the ratio between the IC50 obtained in mammalian cells and the IC50 in trypomastigotes. For the combined treatment, the results were presented as percentage of untreated cells.",
  "data": [
    {"compound": "CCOC(=O)N1CCC(=C2c3ccc(Cl)cc3CCc3cccnc32)CC1", "note": "[Loratadine]", "values": [
      {"measurement": "Selectivity Index", "value": 5.5}
    ]}
  ]
}
